Data from PMC6694678.
The exact form of at least one protein or probe is not confirmed. Results from cells or extracts need not show a direct contact. At least one verdict was read from the data and is not stated in words by the source.

The chains behind the UniProt entries cited, without tags or fusion partners.
UniProt P01100, whole entry: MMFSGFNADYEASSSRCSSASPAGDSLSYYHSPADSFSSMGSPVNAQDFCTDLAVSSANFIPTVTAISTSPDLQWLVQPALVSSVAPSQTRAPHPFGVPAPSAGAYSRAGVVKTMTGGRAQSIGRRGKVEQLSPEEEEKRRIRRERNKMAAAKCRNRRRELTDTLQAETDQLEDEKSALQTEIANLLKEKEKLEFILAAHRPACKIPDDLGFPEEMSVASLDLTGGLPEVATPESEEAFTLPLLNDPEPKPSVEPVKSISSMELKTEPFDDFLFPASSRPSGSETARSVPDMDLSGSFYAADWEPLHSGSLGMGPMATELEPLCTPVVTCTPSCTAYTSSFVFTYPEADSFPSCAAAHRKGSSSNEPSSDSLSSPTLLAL

How the values were obtained:
[1] = target: c-Fos (AP-1 complex in SiHa nuclear extract) (UniProt P01100); assay: EMSA supershift; conditions: anti-c-Fos, faint supershift, complex competed by 1000x self; EMSA: nuclear extract (NE-PER), 4 C, 30 min, chemiluminescent kit; 7% native PAGE, 0.5x TBE; binding buffer, salt and pH not stated; protein in an extract; label: 5'-biotin
[2] = target: c-Fos (AP-1 complex in HeLa nuclear extract) (UniProt P01100); assay: EMSA supershift; conditions: anti-c-Fos, faint supershift, self competition 1000x leaves some signal in HeLa; EMSA: nuclear extract (NE-PER), 4 C, 30 min, chemiluminescent kit; 7% native PAGE, 0.5x TBE; binding buffer, salt and pH not stated; protein in an extract; label: 5'-biotin

“TGGATAAGGATGACGCACAGATTGTCC (double strand) [AP1M]”: binds [1]; binds [2].
“TTACTAGGGATGACACAAGCATAAGTCATTT / AAATGACTTATGCTTGTGTCATCCCTAGTTA [AP1P]”: binds [1]; binds [2].
“TGTTAATCACTGACTTCTGACTAGTGG (double strand) [AP1D]”: binds [1]; binds [2].
